Results published in article PMC5833424.
No constants are given. Whether binding was seen depends on the method and setting. Binding seen in cells or lysates may run through a third protein.

Biological target: Smad3 (human (endogenous in ccRCC cell lines)), P84022
Test: co-IP; co-IP testing Smad2 against Smad3 in the PIM1/Smad complex (Supplementary Figure 2A and B); precipitating antibody not given; protein G-Sepharose beads, overnight at 4 °C
Details: remark: other sources report otherwise

binding: no binding
B1: Smad2, Q15796 1-467 (protein)
chain: MSSILPFTPPVVKRLLGWKKSAGGSGGAGGGEQNGQEEKWCEKAVKSLVKKLKKTGRLDELEKAITTQNCNTKCVTIPSTCSEIWGLSTPNTIDQWDTTGLYSFSEQTRSLDGRLQVSHRKGLPHVIYCRLWRWPDLHSHHELKAIENCEYAFNLKKDEVCVNPYHYQRVETPVLPPVLVPRHTEILTELPPLDDYTHSIPENTNFPAGIEPQSNYIPETPPPGYISEDGETSDQQLNQSMDTGSPAELSPTTLSPVNHSLDLQPVTYSEPAFWCSIAYYELNQRVGETFHASQPSLTVDGFTDPSNSERFCLGLLSNVNRNATVEMTRRHIGRGVRLYYIGGEVFAECLSDSAIFVQSPNCNQRYGWHPATVCKIPPGCNLKIFNNQEFAALLAQSVNQGFEAVYQLTRMCTIRMSFVKGWGAEYRRQTVTSTPCWIELHLNGPLQWLDKVLTQMGSPSVRCSSMS
